# Patent US11707557B2, “Compositions and devices incorporating water-insoluble therapeutic agents and methods of the use thereof” (COOK MEDICAL TECHNOLOGIES LLC, priority 2014, dated 2023)
# Experiments:
# [1] = lidocaine in PEG 300 with 25% w/w EGCG or tannic acid
# [2] = Liquid pharmaceutical excipients in gallate based pastes (solubility, viscosity score, pellet in water); type: physicochemical
# Source text: Various additional water/soluble/miscible liquids were explored (in addition to propylene glycol and polyethylene glycol) as excipients in gallate based pastes.
# A viscosity score was established as follows: 1) Fluid—22 gauge needle; 2) Semi Viscous—18 gauge needle; 3) Viscous—16 gauge needle; 4) Waxy Pellet in water.
Compound,uptake in the 0-250 μm layer compared to Glaxal base and Plogel controls (pig skin),uptake in the 0-250 μm layer compared to the control formulations (pig skin),time of disintegration/dissolution of paste in PBS [1] [days],Solubility of lidocaine at 10% loading [2]
CCN(CC)CC(=O)Nc1c(C)cccc1C [lidocaine],higher uptake levels,higher levels of uptake,3,
Tween 80,,,,Yes
